The other results are listed elsewhere or left out. Small differences around the control level are noise.

The chains behind the UniProt entries cited, without tags or fusion partners. Where a name states a change or a piece, a line headed by the entry shows the natural chain unless it says otherwise.
UniProt Q9Y217: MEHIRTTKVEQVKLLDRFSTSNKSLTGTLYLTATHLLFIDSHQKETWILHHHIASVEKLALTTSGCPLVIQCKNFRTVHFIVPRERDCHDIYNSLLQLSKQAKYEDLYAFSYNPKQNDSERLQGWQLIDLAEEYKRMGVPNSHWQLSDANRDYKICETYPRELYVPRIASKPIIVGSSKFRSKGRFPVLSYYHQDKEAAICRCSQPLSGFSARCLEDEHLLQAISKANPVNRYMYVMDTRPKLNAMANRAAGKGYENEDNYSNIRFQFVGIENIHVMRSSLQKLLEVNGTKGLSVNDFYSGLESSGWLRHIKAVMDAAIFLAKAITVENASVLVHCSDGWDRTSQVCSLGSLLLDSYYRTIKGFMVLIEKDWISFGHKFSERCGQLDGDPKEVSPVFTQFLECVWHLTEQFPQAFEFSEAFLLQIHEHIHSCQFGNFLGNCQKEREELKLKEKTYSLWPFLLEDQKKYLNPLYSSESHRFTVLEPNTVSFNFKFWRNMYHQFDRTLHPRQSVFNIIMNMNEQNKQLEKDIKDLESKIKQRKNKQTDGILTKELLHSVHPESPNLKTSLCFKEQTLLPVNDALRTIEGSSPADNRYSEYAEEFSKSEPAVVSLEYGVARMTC
UniProt Q9UKA9: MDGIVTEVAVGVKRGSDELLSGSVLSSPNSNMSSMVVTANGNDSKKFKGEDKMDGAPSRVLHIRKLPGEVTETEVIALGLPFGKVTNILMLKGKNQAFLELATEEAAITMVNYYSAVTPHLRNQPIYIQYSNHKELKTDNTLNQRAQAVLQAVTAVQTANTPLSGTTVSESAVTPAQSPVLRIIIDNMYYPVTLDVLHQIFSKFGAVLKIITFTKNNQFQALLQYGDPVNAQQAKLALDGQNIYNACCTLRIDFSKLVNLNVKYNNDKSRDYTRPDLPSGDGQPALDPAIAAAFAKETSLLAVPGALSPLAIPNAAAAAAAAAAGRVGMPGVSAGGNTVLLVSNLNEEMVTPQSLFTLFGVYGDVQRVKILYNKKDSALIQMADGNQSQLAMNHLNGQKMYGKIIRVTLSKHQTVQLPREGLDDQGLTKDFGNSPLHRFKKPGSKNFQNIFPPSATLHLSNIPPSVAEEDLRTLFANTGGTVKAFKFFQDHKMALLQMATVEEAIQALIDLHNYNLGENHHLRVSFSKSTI
UniProt Q9UM54, whole entry: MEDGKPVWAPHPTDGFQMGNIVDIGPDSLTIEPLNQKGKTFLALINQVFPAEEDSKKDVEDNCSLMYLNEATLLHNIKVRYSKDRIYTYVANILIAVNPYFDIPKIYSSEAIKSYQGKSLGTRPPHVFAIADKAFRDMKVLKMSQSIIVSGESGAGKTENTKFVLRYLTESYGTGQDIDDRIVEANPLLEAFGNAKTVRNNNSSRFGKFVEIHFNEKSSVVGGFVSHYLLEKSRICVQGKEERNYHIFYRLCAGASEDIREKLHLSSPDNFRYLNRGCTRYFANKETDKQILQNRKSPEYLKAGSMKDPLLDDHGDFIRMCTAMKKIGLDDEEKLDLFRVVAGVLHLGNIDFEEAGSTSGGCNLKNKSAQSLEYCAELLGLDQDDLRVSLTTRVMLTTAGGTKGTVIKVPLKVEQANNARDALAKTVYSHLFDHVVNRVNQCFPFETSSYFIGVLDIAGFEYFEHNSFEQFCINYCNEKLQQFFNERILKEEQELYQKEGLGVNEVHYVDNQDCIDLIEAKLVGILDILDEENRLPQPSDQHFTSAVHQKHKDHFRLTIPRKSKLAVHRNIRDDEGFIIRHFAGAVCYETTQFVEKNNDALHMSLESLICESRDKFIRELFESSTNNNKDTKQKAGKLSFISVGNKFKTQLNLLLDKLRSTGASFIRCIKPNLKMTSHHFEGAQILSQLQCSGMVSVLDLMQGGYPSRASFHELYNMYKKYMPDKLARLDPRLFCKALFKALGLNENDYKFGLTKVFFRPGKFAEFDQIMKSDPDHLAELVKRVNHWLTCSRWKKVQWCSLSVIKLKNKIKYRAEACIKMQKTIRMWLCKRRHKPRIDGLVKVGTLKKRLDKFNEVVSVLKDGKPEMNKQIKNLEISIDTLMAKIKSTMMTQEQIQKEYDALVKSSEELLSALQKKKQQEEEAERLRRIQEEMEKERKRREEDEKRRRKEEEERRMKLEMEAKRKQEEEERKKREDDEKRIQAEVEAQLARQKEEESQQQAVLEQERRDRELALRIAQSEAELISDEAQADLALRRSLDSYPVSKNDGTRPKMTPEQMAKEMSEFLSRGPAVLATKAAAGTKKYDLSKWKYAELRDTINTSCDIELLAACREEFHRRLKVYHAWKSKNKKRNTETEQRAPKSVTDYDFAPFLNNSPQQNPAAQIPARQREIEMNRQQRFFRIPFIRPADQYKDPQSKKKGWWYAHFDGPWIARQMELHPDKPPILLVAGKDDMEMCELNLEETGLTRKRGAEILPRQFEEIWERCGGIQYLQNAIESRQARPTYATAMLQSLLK
UniProt Q9UL63, whole entry: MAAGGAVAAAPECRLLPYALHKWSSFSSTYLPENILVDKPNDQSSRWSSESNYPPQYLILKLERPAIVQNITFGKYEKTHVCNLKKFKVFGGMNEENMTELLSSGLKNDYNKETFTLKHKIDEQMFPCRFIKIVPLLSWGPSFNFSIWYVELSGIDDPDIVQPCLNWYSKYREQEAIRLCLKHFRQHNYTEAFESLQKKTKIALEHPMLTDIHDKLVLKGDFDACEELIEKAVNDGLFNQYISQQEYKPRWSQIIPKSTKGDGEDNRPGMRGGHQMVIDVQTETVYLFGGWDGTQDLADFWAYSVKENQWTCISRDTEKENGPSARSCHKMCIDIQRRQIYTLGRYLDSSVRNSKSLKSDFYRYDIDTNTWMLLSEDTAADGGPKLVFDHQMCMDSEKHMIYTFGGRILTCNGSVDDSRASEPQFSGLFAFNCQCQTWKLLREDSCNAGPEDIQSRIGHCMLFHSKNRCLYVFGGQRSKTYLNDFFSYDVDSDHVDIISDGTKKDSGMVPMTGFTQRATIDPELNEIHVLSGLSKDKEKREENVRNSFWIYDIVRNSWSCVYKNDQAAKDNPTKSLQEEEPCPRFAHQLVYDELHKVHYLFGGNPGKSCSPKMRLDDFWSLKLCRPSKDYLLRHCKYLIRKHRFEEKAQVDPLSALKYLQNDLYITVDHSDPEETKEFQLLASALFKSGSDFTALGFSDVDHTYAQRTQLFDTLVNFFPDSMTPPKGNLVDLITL
UniProt Q9UN86: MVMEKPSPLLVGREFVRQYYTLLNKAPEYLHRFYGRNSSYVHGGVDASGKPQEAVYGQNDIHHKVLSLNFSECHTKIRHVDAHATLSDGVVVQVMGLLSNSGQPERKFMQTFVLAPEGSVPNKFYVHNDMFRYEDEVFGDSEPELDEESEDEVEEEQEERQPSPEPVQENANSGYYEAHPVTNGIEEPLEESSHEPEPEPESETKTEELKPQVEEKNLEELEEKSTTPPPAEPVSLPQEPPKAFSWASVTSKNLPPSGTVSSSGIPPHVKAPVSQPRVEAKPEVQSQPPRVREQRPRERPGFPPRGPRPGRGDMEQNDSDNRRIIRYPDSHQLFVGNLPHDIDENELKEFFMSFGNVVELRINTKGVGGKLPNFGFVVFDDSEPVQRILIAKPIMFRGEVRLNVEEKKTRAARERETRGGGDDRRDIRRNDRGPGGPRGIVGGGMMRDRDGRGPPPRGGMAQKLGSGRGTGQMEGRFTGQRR
UniProt Q9UKT9: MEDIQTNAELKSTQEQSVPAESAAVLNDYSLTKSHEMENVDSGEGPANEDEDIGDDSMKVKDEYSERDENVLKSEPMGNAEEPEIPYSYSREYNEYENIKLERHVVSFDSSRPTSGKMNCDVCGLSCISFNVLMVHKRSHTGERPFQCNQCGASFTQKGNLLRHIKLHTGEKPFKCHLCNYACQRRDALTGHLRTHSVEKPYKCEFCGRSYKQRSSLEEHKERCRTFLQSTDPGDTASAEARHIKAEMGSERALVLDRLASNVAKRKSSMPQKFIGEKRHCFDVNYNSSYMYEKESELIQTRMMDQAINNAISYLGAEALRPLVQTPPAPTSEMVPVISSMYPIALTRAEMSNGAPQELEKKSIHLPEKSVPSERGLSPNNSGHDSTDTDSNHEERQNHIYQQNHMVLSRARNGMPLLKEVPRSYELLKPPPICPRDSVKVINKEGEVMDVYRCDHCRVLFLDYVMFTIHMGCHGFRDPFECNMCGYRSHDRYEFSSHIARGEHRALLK
UniProt Q9Y3B4: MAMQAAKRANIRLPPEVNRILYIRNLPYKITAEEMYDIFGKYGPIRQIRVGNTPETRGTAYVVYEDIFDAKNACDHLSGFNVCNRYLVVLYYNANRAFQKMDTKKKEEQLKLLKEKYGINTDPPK

Compound in this test: CN[C@@H]1C[C@H]2O[C@@](C)([C@@H]1OC)n1c3ccccc3c3c4c(c5c6ccccc6n2c5c31)C(=O)NC4 [staurosporine]
In words: log2 fold change of tryptic peptide abundance, ligand vs vehicle (limited proteolysis) (log2 ratio); higher = more trypsin-susceptible (destabilized). Particulars: ligand concentration: 20 uM; sample: K562 cleared lysate; digestion: 4 min, 22 C (HT-PELSA RT4min, Orbitrap Astral).
“MTMR6 (peptide sequence: CGQLDGDPK, peptide start residue: 383) (UniProt Q9Y217)”: the log2 fold change stood at 0.496. Turning to “PTBP2 (peptide sequence: DFGNSPLHR, peptide start residue: 430) (UniProt Q9UKA9)”, the log2 fold change was -0.319.

Turning to “MYO6 (peptide sequence: GWWYAHFDGPWIAR, peptide start residue: 1200) (UniProt Q9UM54)”, the log2 fold change was -0.328. As for “UniProt Q9UKZ1 (peptide sequence: TLDTGETPSETK, peptide start residue: 496)”, the log2 fold change is 0.0539. Turning to “MKLN1 (peptide sequence: QHNYTEAFESLQKK, peptide start residue: 186) (UniProt Q9UL63)”, the log2 fold change turned out to be 0.321. As for “MRTO4 (peptide sequence: DNLHQVSKR, peptide start residue: 87) (UniProt Q9UKD2)”, the log2 fold change came out at 0.798. For “G3BP2 (peptide sequence: FYVHNDMFR, peptide start residue: 124) (UniProt Q9UN86)”, the log2 fold change was -0.52. On to “UniProt Q9UKT9 (peptide sequence: SSLEEHKER, peptide start residue: 214)”, for which the log2 fold change was determined as 0.618. Under “UniProt Q9Y3B4 (peptide sequence: EKYGINTDPPK, peptide start residue: 115)” stands 0.215.

The record behind these values is the supplement of paper PMC12819154, “High-throughput peptide-centric local stability assay extends protein–ligand identification to membrane proteins, tissues and bacteria” (Nature Structural & Molecular Biology, 2025).
